The nature of series [1]: relative permittivity at various frequencies (dimensionless); xn = mol fraction of the nth substance listed. Conditions: 100 kPa, Liquid, Frequency=1 MHz, Parallel plate capacitor, x1 = 1.
Series [2] in a line: relative permittivity at various frequencies (dimensionless). Conditions: 100 kPa, Liquid, Frequency=1 MHz, Parallel plate capacitor.

The structures appear in SMILES notation. “And” between values parts separate entries of the source, which are not always exact repeats. Identical values can stand only once. Numbers after ± are expanded uncertainties.

Turning to `CC(=O)N(C)C` [N,N-dimethylethanamide] + CCCCNCCCC, the results for the relative permittivity in series [1] (293.15 K), in series [1] (298.15 K) and in series [1] (303.15 K) were 39.695 ± 1.1, 38.586 ± 1 and 37.499 ± 1, respectively.
On to `CC(=O)N(C)C` [N,N-dimethylethanamide] + CCCCN, for which the relative permittivity in series [1] (293.15 K) was 39.653 ± 1.1; in series [1] (298.15 K) it was 38.526 ± 1; in series [1] (303.15 K), 37.515 ± 1.
Consider `CC(=O)N(C)C` [N,N-dimethylethanamide] + CCCCCCN, for which the relative permittivity in series [1] (293.15 K) is 39.688 ± 1.1; in series [1] (298.15 K) it was 38.6 ± 1; in series [1] (303.15 K), 37.552 ± 1.
As for `CC(=O)N(C)C` [N,N-dimethylethanamide] + CCCNCCC, the relative permittivity in series [1] (293.15 K) came to 39.695 ± 1.1; in series [1] (298.15 K) it was 38.586 ± 1; in series [1] (303.15 K), 37.499 ± 1.
In the case of `CC(=O)N(C)C` [N,N-dimethylethanamide], the relative permittivity in series [2] (293.15 K) is 39.695 ± 1.1 and 39.653 ± 1.1 and 39.688 ± 1.1; in series [2] (298.15 K), 38.586 ± 1 and 38.526 ± 1 and 38.6 ± 1; in series [2] (303.15 K) it was 37.499 ± 1 and 37.515 ± 1 and 37.552 ± 1.

The values are drawn from the NIST ThermoML archive (doi:10.1016/j.jct.2017.11.011).
